Experimental data reported in article PMC9561781.
No constants are given. Whether binding was seen depends on the method and setting. In cells and extracts the contact can be indirect. Some binding calls cover weakened binding; strength is not graded here.

The chains behind the UniProt entries cited, without tags or fusion partners. Residues count along the entry.
UniProt P06213, residues 28-1382: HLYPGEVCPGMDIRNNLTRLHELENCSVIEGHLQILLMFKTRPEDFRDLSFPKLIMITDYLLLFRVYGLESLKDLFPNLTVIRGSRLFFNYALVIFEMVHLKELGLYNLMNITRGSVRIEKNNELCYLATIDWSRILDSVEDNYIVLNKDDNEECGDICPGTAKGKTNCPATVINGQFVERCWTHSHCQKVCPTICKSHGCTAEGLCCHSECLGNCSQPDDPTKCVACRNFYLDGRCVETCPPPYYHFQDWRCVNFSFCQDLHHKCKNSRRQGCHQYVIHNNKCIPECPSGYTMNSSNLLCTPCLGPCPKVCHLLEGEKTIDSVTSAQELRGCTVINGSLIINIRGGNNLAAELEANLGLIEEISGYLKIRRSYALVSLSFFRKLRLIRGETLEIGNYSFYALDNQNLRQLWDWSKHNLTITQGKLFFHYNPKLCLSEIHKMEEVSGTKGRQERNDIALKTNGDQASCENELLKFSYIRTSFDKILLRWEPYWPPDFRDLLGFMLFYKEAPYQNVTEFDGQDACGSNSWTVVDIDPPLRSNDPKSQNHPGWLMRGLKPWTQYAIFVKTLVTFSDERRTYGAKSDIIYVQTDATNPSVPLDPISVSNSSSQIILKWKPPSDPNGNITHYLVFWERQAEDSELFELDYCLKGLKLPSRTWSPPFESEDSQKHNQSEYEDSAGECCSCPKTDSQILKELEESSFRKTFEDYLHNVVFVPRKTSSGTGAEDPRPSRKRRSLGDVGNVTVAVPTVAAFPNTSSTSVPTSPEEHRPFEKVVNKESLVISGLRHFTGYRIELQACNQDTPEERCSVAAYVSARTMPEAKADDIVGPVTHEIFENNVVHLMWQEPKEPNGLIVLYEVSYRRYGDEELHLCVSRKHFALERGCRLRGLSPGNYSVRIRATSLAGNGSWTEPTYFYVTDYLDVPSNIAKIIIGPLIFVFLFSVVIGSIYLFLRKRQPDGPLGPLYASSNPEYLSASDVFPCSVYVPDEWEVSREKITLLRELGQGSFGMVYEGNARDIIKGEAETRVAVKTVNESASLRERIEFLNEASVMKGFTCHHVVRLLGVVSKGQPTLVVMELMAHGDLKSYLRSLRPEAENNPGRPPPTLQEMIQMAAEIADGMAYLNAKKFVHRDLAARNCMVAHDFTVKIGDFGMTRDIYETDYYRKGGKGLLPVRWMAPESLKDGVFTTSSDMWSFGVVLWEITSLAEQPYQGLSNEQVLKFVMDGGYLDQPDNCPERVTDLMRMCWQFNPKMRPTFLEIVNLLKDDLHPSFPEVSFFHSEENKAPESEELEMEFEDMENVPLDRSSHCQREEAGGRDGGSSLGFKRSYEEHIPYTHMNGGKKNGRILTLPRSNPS
UniProt Q13257: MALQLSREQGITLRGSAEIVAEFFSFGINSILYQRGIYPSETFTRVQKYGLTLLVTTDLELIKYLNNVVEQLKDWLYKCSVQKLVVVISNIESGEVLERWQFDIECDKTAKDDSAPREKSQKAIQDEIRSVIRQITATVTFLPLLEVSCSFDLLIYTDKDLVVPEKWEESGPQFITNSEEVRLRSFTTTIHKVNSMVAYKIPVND

Biological target: insulin receptor (IR) (human (endogenous in HLF)) (UniProt P06213)
Experiment: co-IP; lysate of HLF cells transfected with siControl or siTrip13 (IP lysis buffer, sonicated); 400 ug lysate precleared, insulin receptor antibody (GFP antibody as control) overnight at 4 C, protein G agarose, 5 washes, elution in glycine pH 3.5, western blot; for co-immunoprecipitation of Mad2 the Pierce Co-IP kit

- binding: binds
Substance: mitotic arrest deficient 2 (Mad2) (from UniProt Q13257 1-205)
